Reference: the supplement of paper PMC10849652
Some of the results follow.

Chains of the proteins cited; added tags and fusions are not shown. Lines headed by an entry give the natural chain unless they say otherwise; changes in a name come on top.
UniProt P16150: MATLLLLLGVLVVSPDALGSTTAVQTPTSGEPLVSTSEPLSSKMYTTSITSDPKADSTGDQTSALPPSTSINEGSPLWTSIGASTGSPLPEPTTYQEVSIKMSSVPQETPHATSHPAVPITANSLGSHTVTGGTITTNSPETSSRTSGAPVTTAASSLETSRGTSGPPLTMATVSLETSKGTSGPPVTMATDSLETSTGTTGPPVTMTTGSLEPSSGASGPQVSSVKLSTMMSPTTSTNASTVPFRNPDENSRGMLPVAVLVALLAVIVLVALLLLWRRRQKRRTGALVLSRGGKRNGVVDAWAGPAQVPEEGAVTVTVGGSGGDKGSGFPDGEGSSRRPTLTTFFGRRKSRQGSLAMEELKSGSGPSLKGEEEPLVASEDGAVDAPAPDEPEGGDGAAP
UniProt Q8IYB3: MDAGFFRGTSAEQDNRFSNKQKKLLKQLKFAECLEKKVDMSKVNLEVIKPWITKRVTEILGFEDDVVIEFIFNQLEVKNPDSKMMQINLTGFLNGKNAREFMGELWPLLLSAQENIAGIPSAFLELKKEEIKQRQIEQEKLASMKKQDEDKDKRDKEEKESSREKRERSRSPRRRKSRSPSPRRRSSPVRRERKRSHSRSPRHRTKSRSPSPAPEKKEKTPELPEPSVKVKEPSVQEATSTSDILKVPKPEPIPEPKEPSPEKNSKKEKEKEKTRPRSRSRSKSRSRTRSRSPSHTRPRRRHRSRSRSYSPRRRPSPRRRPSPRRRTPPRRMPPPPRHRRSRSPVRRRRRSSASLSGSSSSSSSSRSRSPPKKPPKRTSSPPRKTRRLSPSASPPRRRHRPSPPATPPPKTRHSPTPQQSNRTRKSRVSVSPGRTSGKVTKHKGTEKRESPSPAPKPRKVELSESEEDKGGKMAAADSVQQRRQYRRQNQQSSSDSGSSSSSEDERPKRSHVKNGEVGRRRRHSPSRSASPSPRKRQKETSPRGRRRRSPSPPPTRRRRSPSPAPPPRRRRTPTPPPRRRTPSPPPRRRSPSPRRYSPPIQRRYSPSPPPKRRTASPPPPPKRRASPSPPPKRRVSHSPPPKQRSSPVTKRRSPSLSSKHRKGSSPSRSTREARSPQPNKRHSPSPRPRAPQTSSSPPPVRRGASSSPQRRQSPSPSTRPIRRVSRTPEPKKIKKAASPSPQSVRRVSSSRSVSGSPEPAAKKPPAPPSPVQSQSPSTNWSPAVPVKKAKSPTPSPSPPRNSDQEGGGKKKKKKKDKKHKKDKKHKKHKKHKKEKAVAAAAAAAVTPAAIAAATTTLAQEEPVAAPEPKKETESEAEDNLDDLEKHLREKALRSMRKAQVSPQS
UniProt P19623: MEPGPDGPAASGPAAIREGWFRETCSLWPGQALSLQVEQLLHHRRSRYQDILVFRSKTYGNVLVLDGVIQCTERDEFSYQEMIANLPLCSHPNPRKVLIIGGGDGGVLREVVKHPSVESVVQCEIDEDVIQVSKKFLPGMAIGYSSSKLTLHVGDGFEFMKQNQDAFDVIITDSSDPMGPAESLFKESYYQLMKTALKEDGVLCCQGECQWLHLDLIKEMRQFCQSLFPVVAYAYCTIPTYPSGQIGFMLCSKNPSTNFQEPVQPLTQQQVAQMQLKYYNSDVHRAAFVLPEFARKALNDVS
UniProt Q8WXA9: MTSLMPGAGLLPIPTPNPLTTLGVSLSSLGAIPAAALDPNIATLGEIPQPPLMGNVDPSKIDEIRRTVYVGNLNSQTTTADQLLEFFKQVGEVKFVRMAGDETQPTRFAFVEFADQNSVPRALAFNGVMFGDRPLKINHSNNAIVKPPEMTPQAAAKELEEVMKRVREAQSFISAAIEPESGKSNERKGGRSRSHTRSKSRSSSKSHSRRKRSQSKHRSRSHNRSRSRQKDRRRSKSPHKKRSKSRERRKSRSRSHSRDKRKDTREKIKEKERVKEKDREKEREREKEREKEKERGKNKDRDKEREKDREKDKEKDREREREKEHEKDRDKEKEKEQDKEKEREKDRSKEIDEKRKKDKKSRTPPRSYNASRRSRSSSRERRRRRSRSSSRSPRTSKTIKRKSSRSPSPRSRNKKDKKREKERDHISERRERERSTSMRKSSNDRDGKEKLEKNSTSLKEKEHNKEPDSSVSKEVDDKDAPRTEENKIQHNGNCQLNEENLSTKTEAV
UniProt O00506, whole entry, looked up: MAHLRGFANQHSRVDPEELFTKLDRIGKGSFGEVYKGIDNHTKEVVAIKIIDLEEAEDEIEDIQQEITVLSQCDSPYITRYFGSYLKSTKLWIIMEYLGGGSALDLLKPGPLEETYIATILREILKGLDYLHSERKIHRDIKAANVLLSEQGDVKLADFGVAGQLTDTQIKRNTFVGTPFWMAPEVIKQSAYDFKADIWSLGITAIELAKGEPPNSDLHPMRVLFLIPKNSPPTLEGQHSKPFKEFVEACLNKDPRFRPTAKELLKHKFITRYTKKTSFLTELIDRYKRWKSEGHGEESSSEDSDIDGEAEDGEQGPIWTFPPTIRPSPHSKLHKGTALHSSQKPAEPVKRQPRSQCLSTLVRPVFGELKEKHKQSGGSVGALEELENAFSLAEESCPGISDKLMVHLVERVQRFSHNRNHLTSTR
UniProt Q08945, whole entry, looked up: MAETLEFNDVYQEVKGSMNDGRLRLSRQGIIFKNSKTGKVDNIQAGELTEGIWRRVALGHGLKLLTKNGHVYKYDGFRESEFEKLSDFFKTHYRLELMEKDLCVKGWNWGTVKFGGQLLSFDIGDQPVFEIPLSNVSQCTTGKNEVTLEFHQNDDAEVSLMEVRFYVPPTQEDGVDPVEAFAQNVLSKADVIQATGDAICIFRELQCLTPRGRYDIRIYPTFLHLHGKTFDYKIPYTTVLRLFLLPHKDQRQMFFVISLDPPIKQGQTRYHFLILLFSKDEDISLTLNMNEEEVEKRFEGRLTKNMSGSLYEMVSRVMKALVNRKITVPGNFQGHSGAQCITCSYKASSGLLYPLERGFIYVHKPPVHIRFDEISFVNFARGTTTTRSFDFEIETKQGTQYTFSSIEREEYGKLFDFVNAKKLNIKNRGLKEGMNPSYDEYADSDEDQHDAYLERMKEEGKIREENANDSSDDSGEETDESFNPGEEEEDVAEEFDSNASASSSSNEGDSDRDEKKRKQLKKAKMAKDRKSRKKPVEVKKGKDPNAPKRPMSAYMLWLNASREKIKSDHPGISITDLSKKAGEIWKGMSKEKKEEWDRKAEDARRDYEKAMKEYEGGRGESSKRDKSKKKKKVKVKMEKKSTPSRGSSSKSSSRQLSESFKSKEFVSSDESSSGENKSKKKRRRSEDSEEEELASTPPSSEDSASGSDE
UniProt Q658P3: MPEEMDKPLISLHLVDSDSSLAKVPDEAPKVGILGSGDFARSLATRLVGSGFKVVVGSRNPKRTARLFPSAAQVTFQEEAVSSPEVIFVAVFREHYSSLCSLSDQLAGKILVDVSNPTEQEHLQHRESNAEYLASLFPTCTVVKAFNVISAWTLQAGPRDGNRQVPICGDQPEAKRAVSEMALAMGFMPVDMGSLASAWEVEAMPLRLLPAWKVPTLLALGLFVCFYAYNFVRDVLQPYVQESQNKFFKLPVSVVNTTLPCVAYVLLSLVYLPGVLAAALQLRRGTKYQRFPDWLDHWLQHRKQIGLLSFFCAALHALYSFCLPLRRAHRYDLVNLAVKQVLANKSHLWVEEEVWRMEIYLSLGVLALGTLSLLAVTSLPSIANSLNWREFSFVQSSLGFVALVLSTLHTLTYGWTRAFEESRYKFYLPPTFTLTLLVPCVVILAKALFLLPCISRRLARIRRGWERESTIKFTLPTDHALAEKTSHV
UniProt Q05519: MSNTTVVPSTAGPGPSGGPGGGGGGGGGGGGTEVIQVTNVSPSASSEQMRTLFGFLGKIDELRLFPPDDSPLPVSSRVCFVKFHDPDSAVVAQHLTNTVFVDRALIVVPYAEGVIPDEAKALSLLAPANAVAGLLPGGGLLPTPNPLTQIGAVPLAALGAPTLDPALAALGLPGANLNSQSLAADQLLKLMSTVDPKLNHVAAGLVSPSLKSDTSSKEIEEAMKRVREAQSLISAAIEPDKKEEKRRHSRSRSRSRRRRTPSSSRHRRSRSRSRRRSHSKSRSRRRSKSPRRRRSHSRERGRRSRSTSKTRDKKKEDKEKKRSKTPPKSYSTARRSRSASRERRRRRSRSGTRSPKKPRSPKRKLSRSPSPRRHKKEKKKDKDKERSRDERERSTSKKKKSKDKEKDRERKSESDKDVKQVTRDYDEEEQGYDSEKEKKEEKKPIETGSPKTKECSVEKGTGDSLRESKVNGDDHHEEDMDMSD
UniProt Q8N1F8: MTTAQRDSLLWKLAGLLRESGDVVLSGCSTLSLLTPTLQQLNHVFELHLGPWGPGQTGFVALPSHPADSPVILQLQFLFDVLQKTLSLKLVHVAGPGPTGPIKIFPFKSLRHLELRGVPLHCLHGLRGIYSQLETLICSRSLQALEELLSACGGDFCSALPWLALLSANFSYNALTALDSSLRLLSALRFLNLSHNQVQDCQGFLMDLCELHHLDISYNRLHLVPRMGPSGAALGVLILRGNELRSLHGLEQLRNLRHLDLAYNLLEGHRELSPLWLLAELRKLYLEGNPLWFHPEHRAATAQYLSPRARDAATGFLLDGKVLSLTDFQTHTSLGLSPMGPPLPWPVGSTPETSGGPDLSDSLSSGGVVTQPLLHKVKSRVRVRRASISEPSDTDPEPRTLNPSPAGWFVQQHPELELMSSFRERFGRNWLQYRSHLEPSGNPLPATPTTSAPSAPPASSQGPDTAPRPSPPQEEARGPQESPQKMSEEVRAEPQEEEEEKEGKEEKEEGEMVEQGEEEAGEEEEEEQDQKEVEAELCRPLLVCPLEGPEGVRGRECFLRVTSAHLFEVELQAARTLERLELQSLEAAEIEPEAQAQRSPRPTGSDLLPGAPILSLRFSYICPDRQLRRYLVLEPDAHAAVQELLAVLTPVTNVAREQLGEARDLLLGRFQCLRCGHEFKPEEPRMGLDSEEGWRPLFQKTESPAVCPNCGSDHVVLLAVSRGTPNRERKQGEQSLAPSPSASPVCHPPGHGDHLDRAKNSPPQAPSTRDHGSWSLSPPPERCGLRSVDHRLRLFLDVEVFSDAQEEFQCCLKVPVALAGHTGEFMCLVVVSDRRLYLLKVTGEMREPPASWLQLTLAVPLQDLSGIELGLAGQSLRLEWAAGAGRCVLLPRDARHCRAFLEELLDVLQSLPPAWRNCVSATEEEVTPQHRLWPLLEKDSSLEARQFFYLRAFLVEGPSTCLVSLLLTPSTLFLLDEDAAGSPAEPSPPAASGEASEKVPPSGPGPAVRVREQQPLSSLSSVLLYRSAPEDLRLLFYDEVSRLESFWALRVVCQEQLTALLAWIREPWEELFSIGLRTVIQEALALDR
UniProt Q9H2V7: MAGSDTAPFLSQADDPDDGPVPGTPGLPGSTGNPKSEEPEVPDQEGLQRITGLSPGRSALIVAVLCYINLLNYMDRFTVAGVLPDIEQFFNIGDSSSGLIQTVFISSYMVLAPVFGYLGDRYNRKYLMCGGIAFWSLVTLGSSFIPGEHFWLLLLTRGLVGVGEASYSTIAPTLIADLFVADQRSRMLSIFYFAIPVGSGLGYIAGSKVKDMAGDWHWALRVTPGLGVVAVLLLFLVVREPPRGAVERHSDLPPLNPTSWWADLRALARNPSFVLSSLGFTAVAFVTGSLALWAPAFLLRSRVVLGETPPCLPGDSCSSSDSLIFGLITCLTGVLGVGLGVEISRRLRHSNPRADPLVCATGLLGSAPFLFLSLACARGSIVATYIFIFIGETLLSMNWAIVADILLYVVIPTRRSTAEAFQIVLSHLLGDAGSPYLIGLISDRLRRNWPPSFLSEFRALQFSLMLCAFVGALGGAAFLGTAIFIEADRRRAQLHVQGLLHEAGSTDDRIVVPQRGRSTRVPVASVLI
UniProt Q04837: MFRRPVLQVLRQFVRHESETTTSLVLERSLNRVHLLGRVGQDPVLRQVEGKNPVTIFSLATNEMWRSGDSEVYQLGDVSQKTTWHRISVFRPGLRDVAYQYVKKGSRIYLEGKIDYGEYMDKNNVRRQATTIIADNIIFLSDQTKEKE
UniProt P49458: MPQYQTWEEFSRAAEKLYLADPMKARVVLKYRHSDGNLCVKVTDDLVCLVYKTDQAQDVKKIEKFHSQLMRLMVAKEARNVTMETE
UniProt Q16385, whole entry, looked up: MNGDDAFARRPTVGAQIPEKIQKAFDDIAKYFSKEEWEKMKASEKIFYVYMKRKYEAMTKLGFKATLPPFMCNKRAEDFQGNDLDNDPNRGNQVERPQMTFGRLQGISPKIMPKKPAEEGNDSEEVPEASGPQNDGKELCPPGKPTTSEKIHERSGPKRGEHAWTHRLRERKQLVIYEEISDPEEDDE
UniProt O75494: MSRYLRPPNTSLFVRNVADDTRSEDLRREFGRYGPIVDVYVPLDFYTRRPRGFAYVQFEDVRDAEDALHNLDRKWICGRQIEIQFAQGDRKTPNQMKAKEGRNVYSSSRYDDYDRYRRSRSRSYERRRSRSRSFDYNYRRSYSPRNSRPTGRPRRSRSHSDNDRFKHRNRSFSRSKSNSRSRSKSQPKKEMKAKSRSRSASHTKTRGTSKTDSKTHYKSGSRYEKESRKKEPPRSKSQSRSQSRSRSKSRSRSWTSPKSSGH

Assays:
Test in all cases: log2 fold change, soluble protein after heating vs DMSO (PISA); higher = thermal stabilisation; K562 cells, 10 uM, 30 min; active = over 0.2 and 3.5 SD of the protein, either way, in both replicates (recomputed)
[1] = compound: CS(=O)(=O)c1ccc(-c2cnc(N)c(C(=O)Nc3ccccc3)n2)cc1
Outline: (§1)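 K562 cells at 2×10^6 cells/mL were given 10 μM compound for 30 min. Aliquots then went through 3 min of heating across 48°C-58°C, were pooled, and were extracted in PBS with 0.5% NP-40 at 4°C, and the supernatant after 21,000xg for 90 min was quantified by TMTpro 16plex LC-MS/MS with channel sums equalised. Thermal stability relative to control samples, from duplicates, is given as log2 fold change.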

crizotinib = compound: C[C@@H](Oc1cc(-c2cnn(C3CCNCC3)c2)cnc1N)c1c(Cl)ccc(F)c1Cl [crizotinib]
Outline: as §1

[2] = compound: C[C@@H]1COCCN1C2=NC(=NC(=C2)C3(CC3)S(=O)(=O)C)C4=C5C=CNC5=CC=C4
Outline: as §1

[3] = compound: C[C@H](C1=CC=C(C=C1)C(=O)NC2=C3C=CNC3=NC=C2)N
Outline: as §1

duvelisib = compound: C[C@H](Nc1ncnc2nc[nH]c12)c1cc2cccc(Cl)c2c(=O)n1-c1ccccc1 [duvelisib]
Outline: as §1

gandotinib = compound: Cc1cc(Nc2cc(CN3CCOCC3)c3nc(C)c(Cc4ccc(Cl)cc4F)n3n2)n[nH]1 [gandotinib]
Outline: as §1

tozasertib = compound: Cc1cc(Nc2cc(N3CCN(C)CC3)nc(Sc3ccc(NC(=O)C4CC4)cc3)n2)n[nH]1 [tozasertib]
Outline: as §1

[4] = compound: Cc1cc(SCc2sc(-c3ccc(C(F)(F)F)cc3)nc2C)ccc1OCC(=O)O
Outline: as §1

doramapimod = compound: Cc1ccc(-n2nc(C(C)(C)C)cc2NC(=O)Nc2ccc(OCCN3CCOCC3)c3ccccc23)cc1 [doramapimod]
Outline: as §1

ispinesib = compound: Cc1ccc(C(=O)N(CCCN)[C@@H](c2nc3cc(Cl)ccc3c(=O)n2Cc2ccccc2)C(C)C)cc1 [ispinesib]
Outline: as §1

Measured: log2 fold change

SPARC (UniProt P09486)
inactive: [1] -0.01 | crizotinib 0.085 | [2] -0.058 | [3] 0.072 | duvelisib -0.075 | gandotinib 0.076 | tozasertib -0.089 | [4] -0.022 | doramapimod -0.035 | ispinesib 0.008

SPTAN1 isoform 2 (UniProt Q13813)
inactive: [1] -0.033 | crizotinib 0.149 | [2] 0.024 | [3] 0.004 | duvelisib -0.015 | gandotinib -0.017 | tozasertib 0.023 | [4] -0.031 | doramapimod 0.042 | ispinesib 0.051

SPTA1 (UniProt P02549)
inactive: [1] 0.044 | crizotinib -0.012 | [2] -0.142 | [3] 0.367 | duvelisib -0.065 | gandotinib 0.06 | tozasertib 0.139 | [4] 0.135 | doramapimod 0.195 | ispinesib -0.255

SSR1 (UniProt P43307)
inactive: [1] 0.004 | crizotinib 0.026 | [2] -0.023 | [3] 0.009 | duvelisib 0.044 | gandotinib -0.002 | tozasertib -0.013 | [4] -0.01 | doramapimod 0.01 | ispinesib -0.002

SPN (UniProt P16150)
inactive: [1] 0.035 | crizotinib 0.217 | [2] -0.007 | [3] -0.042 | duvelisib 0.048 | gandotinib 0.029 | tozasertib -0.05 | [4] -0.138 | doramapimod -0.023 | ispinesib 0.074

SRRM1 (UniProt Q8IYB3)
inactive: [1] -0.018 | crizotinib -0.1 | [2] -0.177 | [3] 0.08 | duvelisib -0.104 | gandotinib 0.156 | tozasertib -0.03 | [4] -0.03 | doramapimod 0.126 | ispinesib -0.21

SRM (UniProt P19623)
inactive: [1] 0.053 | crizotinib -0.147 | [2] 0.148 | [3] -0.05 | duvelisib -0.029 | gandotinib 0.034 | tozasertib -0.023 | [4] 0.028 | doramapimod 0.029 | ispinesib -0.016

SRSF1 (UniProt Q07955)
inactive: [1] -0.07 | crizotinib -0.05 | [2] -0.269 | [3] 0.1 | duvelisib -0.103 | gandotinib 0.064 | tozasertib -0.038 | [4] -0.024 | doramapimod 0.038 | ispinesib -0.139

STARD9 (UniProt Q9P2P6)
inactive: [1] 0.144 | crizotinib 0.141 | [2] 0.012 | [3] 0.049 | gandotinib 0.04 | [4] 0.028 | doramapimod 0.074 | ispinesib -0.146

SREK1 isoform 2 (UniProt Q8WXA9)
inactive: [1] 0.317 | crizotinib -0.05 | [2] -0.005 | [3] -0.345 | gandotinib 0.014 | [4] 0.105 | doramapimod -0.027 | ispinesib 0.059

STK25 (UniProt O00506)
inactive: [1] 0.04 | crizotinib -0.2 | [2] -0.011 | [3] -0.026 | gandotinib -0.074 | [4] -0.001 | doramapimod 0.019 | ispinesib -0.071

SPCS3 (UniProt P61009)
inactive: [1] 0.057 | crizotinib 0.079 | [2] 0.028 | [3] 0.008 | duvelisib -0.008 | gandotinib -0.013 | tozasertib -0.02 | [4] -0.029 | doramapimod -0.029 | ispinesib -0.021

SRPRA (UniProt P08240)
inactive: [1] 0.066 | crizotinib 0.036 | [2] 0.061 | [3] 0.01 | gandotinib -0.042 | [4] 0.063 | doramapimod -0.044 | ispinesib 0.045

STK26 (UniProt Q9P289)
inactive: [1] -0.019 | [2] 0.123 | [3] 0.049 | gandotinib -0.061 | [4] -0.01 | doramapimod -0.034 | ispinesib -0.146
active: crizotinib -0.308

SSRP1 (UniProt Q08945)
inactive: [1] -0.024 | crizotinib -0.018 | [2] 0.144 | [3] -0.088 | gandotinib -0.029 | [4] 0.072 | doramapimod -0.027 | ispinesib 0.048

SPATA5 (UniProt Q8NB90)
inactive: [1] -0.016 | crizotinib 0.05 | [2] -0.045 | [3] 0.023 | duvelisib -0.019 | gandotinib 0.011 | tozasertib -0.014 | [4] -0.051 | doramapimod 0.002 | ispinesib 0.03

STEAP3 isoform 2 (UniProt Q658P3)
inactive: [1] 0.065 | crizotinib -0.003 | [2] 0.022 | [3] -0.013 | gandotinib -0.032 | [4] 0.012 | doramapimod 0.003 | ispinesib -0.159

SRSF11 (UniProt Q05519)
inactive: [1] -0.037 | crizotinib 0.015 | [2] 0.045 | gandotinib -0.068 | [4] 0.067 | doramapimod -0.015 | ispinesib 0.08
active: [3] -0.277

Two entries drawn at random from the list so far, as already listed:
SRSF11 (UniProt Q05519)
inactive: [1] -0.037 | crizotinib 0.015 | [2] 0.045 | gandotinib -0.068 | [4] 0.067 | doramapimod -0.015 | ispinesib 0.08
active: [3] -0.277

SSRP1 (UniProt Q08945)
inactive: [1] -0.024 | crizotinib -0.018 | [2] 0.144 | [3] -0.088 | gandotinib -0.029 | [4] 0.072 | doramapimod -0.027 | ispinesib 0.048

More results:

STK11IP (UniProt Q8N1F8)
active: crizotinib -0.869
inactive: [1] -0.21 | [2] -0.078 | [3] -0.124 | gandotinib -0.002 | [4] 0.021 | doramapimod 0.006

SPNS1 (UniProt Q9H2V7)
inactive: [1] 0.048 | crizotinib -0.113 | [2] 0.07 | [3] -0.05 | duvelisib 0.049 | gandotinib 0.082 | tozasertib -0.071 | [4] -0.043 | doramapimod 0.024 | ispinesib -0.286

STIP1 isoform 2 (UniProt P31948)
inactive: [1] -0.046 | crizotinib 0.017 | [2] 0.03 | [3] -0.044 | duvelisib 0.009 | gandotinib -0.038 | tozasertib 0.009 | [4] -0.009 | doramapimod -0.036 | ispinesib 0.061

SQSTM1 (UniProt Q13501)
inactive: [1] 0.1 | crizotinib -0.149 | [2] -0.059 | [3] 0.042 | gandotinib 0.168 | [4] -0.027 | doramapimod 0.008 | ispinesib -0.019

SSR4 (UniProt P51571)
inactive: [1] -0.004 | crizotinib 0.001 | [2] 0.081 | [3] -0.054 | gandotinib -0.055 | [4] 0.033 | doramapimod -0.019 | ispinesib -0.045

ST13 (UniProt P50502)
inactive: [1] 0.007 | crizotinib -0.003 | [2] 0.058 | [3] -0.015 | duvelisib -0.009 | gandotinib -0.066 | tozasertib 0.033 | [4] 0.032 | doramapimod -0.015 | ispinesib -0.013

SSBP1 (UniProt Q04837)
inactive: [1] 0.043 | crizotinib 0.077 | [2] -0.076 | [3] 0.118 | duvelisib -0.024 | gandotinib 0.032 | tozasertib 0.022 | [4] -0.011 | doramapimod 0.037 | ispinesib -0.113

STAG2 (UniProt Q8N3U4)
inactive: [1] 0.035 | crizotinib 0.027 | [2] 0.045 | [3] -0.118 | duvelisib 0.051 | gandotinib -0.032 | tozasertib 0.023 | [4] 0.007 | doramapimod -0.041 | ispinesib 0.066

SRP9 (UniProt P49458)
inactive: [1] -0.071 | crizotinib 0.072 | [2] -0.386 | [3] 0.345 | duvelisib -0.164 | gandotinib 0.197 | tozasertib 0.016 | [4] -0.004 | doramapimod 0.215 | ispinesib -0.188

SRPK1 (UniProt Q96SB4)
inactive: [1] -0.039 | crizotinib -0.07 | [2] -0.468 | [3] 0.531 | duvelisib -0.313 | gandotinib 0.347 | tozasertib 0.005 | [4] 0.064 | doramapimod 0.325 | ispinesib -0.204

SRFBP1 (UniProt Q8NEF9)
inactive: [1] -0.053 | crizotinib -0.029 | [2] -0.21 | [3] 0.061 | gandotinib 0.083 | [4] -0.028 | doramapimod 0.007 | ispinesib -0.055

SSX2 (UniProt Q16385)
inactive: [1] -0.024 | crizotinib 0.062 | [2] 0.05 | [3] 0.053 | gandotinib -0.003 | [4] -0.009 | doramapimod -0.043 | ispinesib -0.029

SRPRB (UniProt Q9Y5M8)
inactive: [1] -0.006 | crizotinib 0.01 | [2] 0.059 | [3] -0.042 | gandotinib 0.055 | [4] 0.083 | doramapimod -0.026 | ispinesib 0.055

SRSF10 (UniProt O75494)
inactive: [1] -0.176 | crizotinib 0.153 | [2] -0.539 | [3] 0.259 | gandotinib 0.183 | [4] 0.036 | doramapimod 0.222 | ispinesib -0.172

STK11 (UniProt Q15831)
inactive: [1] 0.032 | crizotinib 0.063 | [2] 0.019 | [3] -0.044 | duvelisib 0.112 | gandotinib 0.021 | tozasertib 0 | [4] 0.05 | doramapimod -0.07 | ispinesib 0.072
